Data reported in paper PMC8301015.

By UniProt entry, the sequences of proteins in these tests, tags left out. Where a name states a change or a piece, a line headed by the entry shows the natural chain unless it says otherwise.
UniProt Q9RZ10: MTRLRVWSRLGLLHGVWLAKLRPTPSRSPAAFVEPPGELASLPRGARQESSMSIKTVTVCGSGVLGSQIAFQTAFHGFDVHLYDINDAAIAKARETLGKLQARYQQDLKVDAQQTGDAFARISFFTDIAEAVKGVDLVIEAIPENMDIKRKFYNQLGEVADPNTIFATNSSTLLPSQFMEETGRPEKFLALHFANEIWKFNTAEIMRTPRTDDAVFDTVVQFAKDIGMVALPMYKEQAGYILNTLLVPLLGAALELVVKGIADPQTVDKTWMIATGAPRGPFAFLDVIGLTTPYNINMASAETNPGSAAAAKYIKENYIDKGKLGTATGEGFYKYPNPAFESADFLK
UniProt Q9RRB4: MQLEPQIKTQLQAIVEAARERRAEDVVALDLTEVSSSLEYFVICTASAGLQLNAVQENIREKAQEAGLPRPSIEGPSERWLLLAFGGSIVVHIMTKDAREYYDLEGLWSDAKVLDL

Biological target: T1, AbxC (atypical BrxC; DR_1832), C-terminal His x 6 tag (Deinococcus radiodurans) (UniProt Q9RTD3)
T1 sequence: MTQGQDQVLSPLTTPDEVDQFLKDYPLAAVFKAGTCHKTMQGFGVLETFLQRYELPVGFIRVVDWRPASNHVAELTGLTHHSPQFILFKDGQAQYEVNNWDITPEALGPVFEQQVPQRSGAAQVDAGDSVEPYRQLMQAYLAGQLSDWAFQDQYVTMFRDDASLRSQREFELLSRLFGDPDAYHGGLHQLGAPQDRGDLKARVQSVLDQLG
Assay: affinity purification with mass spectrometry; AbxC immobilised on CNBr-activated Sepharose 4B; 10 mg D. radiodurans cell lysate, overnight at 4 °C; washed with 100 mM Tris pH 8.0, 0.5 M NaCl; eluted with 10 mM DTT; SDS-PAGE bands, in-gel trypsin, nLC-MS-MS; only the target purified

With “3-hydroxyacyl-CoA dehydrogenase (DR_A0143), endogenous (from UniProt Q9RZ10) (enzyme)” the binding was “binds”.

With “ribosomal silencing factor RsfS (DR_2580), endogenous (from UniProt Q9RRB4)” the binding was “binds”.

No constants are given. Whether binding was seen depends on the method and setting. Binding seen in cells or lysates may run through a third protein. A yes stands for co-enrichment or nearness to the bait. Other partners may have been found. Tags and fused reporters may be left off the sequences shown.
